No constants are given. Whether binding was seen depends on the method and setting. For part of these data: In cells and extracts the contact can be indirect. Some results given as binding are weak or reduced against the parent protein; the word gives no strength. Sequences can lack the tags named with a protein. One block for each molecule: values may come before it.
Assays:
[1] = molecular target: T1, Vik1–Kar3 heterodimer (full-length Vik1-1xFLAG with Halo-Kar3) (S. cerevisiae (S288c)) (UniProt P17119+Q12045); test: in vitro recruitment to microtubules (TIRF microscopy); bulk recruitment assay in the absence of nucleotide; TMR-labeled Kar3 motors and fluorescently labeled recombinant Ndc80 complex on surface-immobilised taxol-stabilized microtubules; both purified
T1 sequence (chain, HaloTag TMR ligand covalently bound to the HaloTag (imaging experiments)) 1: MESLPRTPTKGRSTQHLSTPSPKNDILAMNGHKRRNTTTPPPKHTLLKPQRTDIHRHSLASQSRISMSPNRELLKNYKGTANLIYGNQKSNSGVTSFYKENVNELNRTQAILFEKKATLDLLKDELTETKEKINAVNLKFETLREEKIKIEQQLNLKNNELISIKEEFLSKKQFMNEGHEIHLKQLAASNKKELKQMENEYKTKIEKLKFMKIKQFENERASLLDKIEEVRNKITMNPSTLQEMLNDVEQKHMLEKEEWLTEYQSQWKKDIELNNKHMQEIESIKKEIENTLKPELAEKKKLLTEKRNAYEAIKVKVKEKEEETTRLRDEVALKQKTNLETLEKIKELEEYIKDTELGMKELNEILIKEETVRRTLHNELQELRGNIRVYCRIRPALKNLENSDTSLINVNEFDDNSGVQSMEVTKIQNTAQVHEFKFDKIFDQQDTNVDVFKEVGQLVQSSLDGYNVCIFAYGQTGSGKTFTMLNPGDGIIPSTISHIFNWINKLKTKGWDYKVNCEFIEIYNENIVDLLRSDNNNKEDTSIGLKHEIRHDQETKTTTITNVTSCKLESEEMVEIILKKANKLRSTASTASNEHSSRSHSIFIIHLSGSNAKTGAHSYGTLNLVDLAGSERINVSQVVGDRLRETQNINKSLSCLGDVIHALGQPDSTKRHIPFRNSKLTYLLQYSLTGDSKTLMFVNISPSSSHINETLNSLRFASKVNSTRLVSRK
T1 sequence (chain, HaloTag TMR ligand covalently bound to the HaloTag (imaging experiments)) 2: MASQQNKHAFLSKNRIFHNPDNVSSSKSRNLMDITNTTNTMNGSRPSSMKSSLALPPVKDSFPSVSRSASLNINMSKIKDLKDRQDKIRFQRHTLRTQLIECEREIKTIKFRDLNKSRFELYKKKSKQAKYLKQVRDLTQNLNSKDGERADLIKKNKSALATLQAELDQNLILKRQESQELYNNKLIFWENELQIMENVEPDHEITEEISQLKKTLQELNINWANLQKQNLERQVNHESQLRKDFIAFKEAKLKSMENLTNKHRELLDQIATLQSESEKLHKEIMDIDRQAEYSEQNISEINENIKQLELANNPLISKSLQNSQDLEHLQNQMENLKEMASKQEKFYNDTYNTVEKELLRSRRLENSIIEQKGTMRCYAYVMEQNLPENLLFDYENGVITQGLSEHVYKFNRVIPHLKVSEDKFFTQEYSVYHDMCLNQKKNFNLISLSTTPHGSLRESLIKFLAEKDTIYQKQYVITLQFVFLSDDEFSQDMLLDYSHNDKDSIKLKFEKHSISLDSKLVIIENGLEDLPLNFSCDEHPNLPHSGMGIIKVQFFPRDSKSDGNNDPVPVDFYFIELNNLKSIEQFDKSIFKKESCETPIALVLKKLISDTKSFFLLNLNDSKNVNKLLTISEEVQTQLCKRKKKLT

Amino acid sequences for entries named in this document (tags omitted). A change or cut given only in a name is not applied to a line headed by its entry.
UniProt P40460: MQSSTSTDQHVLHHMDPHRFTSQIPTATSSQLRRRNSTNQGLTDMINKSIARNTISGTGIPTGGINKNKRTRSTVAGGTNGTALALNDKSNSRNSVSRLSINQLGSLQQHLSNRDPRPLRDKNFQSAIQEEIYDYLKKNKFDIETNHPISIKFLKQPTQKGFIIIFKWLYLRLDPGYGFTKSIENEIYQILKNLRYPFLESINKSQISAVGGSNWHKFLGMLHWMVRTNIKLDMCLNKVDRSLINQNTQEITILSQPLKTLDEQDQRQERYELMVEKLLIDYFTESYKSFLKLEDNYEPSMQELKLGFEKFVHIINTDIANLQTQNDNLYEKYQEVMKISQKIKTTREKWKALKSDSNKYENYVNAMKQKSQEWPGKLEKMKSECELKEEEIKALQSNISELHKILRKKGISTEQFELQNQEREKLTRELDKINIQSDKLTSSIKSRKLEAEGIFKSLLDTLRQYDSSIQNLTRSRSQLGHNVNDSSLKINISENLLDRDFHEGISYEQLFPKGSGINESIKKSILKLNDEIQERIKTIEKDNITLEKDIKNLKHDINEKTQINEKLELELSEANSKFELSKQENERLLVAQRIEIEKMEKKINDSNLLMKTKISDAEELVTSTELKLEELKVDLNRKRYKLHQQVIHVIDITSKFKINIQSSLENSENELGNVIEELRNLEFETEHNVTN

[2] = molecular target: T2, Cik1-1xFLAG (full-length Cik1, aa 1–594) (S. cerevisiae (S288c)) (UniProt Q01649); test: co-IP; two subunits co-overexpressed in S. cerevisiae; FLAG-tagged subunit bound to M2 anti-FLAG affinity agarose (lysis buffer 300 mM NaCl, washes 150 mM NaCl), HaloTag labelled on the resin, eluted with 3xFLAG peptide; Coomassie SDS-PAGE and fluorescence of the Halo-Kar3 subunit
T2 sequence: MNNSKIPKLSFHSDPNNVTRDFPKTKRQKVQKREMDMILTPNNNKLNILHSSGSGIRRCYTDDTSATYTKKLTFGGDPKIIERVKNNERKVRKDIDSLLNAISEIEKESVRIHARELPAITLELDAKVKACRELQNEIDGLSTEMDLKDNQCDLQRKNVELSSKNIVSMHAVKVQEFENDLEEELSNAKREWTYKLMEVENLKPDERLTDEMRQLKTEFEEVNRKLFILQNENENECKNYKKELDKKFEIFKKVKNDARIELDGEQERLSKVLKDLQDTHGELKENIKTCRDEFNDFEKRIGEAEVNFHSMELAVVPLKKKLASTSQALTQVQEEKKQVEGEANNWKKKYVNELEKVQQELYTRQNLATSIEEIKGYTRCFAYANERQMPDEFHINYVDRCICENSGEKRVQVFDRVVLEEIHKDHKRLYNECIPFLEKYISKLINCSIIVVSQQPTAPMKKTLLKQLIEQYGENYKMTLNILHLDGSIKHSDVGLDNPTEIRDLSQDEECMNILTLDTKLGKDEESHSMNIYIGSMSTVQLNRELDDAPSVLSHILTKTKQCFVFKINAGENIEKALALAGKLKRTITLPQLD

[3] = molecular target: T3, GST-Bim1^FL (budding yeast) (UniProt P40013); test: pull-down; 0.1–1 μM GST-tagged bait immobilised on glutathione sepharose; binding partner at a constant 0.5–1 μM; 25 mM Hepes pH 7.2, 250 mM NaCl, 1 mM MgCl2, 1 mM EGTA, 0.5 mM DTT, 0.05% NP-40; 1 hr at 4°C; SDS-PAGE, Coomassie; both purified
T3 sequence: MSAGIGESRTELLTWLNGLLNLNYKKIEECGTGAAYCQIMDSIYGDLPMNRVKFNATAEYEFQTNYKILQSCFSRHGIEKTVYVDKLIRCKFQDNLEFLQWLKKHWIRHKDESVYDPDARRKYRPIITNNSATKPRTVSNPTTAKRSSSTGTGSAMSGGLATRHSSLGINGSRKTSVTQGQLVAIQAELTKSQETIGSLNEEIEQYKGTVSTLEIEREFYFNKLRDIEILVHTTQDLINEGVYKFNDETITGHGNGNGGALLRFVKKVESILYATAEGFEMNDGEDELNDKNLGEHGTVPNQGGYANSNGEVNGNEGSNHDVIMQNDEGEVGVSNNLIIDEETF

- binding [1]: no binding
Molecule: recombinant full-length Ndc80 complex (Ndc80p-6xHis/Nuf2p-EGFP and Spc24p/6xHis/Spc25p) (from UniProt P40460 1-691; P33895 1-451; Q04477 1-213; P40014 1-221)

- binding [2]: binds
B1: Halo-Kar3 with the amino-terminal tail domain truncated (up to aa 174) (domain or fragment, UniProt P17119 175-729)
chain: MNEGHEIHLKQLAASNKKELKQMENEYKTKIEKLKFMKIKQFENERASLLDKIEEVRNKITMNPSTLQEMLNDVEQKHMLEKEEWLTEYQSQWKKDIELNNKHMQEIESIKKEIENTLKPELAEKKKLLTEKRNAYEAIKVKVKEKEEETTRLRDEVALKQKTNLETLEKIKELEEYIKDTELGMKELNEILIKEETVRRTLHNELQELRGNIRVYCRIRPALKNLENSDTSLINVNEFDDNSGVQSMEVTKIQNTAQVHEFKFDKIFDQQDTNVDVFKEVGQLVQSSLDGYNVCIFAYGQTGSGKTFTMLNPGDGIIPSTISHIFNWINKLKTKGWDYKVNCEFIEIYNENIVDLLRSDNNNKEDTSIGLKHEIRHDQETKTTTITNVTSCKLESEEMVEIILKKANKLRSTASTASNEHSSRSHSIFIIHLSGSNAKTGAHSYGTLNLVDLAGSERINVSQVVGDRLRETQNINKSLSCLGDVIHALGQPDSTKRHIPFRNSKLTYLLQYSLTGDSKTLMFVNISPSSSHINETLNSLRFASKVNSTRLVSRK
modifications: HaloTag TMR ligand covalently bound to the HaloTag

B2: Vik1–Kar3 heterodimer (full-length Vik1-1xFLAG with Halo-Kar3) (complex, UniProt P17119 1-729; Q12045 1-647)
chain 1: MESLPRTPTKGRSTQHLSTPSPKNDILAMNGHKRRNTTTPPPKHTLLKPQRTDIHRHSLASQSRISMSPNRELLKNYKGTANLIYGNQKSNSGVTSFYKENVNELNRTQAILFEKKATLDLLKDELTETKEKINAVNLKFETLREEKIKIEQQLNLKNNELISIKEEFLSKKQFMNEGHEIHLKQLAASNKKELKQMENEYKTKIEKLKFMKIKQFENERASLLDKIEEVRNKITMNPSTLQEMLNDVEQKHMLEKEEWLTEYQSQWKKDIELNNKHMQEIESIKKEIENTLKPELAEKKKLLTEKRNAYEAIKVKVKEKEEETTRLRDEVALKQKTNLETLEKIKELEEYIKDTELGMKELNEILIKEETVRRTLHNELQELRGNIRVYCRIRPALKNLENSDTSLINVNEFDDNSGVQSMEVTKIQNTAQVHEFKFDKIFDQQDTNVDVFKEVGQLVQSSLDGYNVCIFAYGQTGSGKTFTMLNPGDGIIPSTISHIFNWINKLKTKGWDYKVNCEFIEIYNENIVDLLRSDNNNKEDTSIGLKHEIRHDQETKTTTITNVTSCKLESEEMVEIILKKANKLRSTASTASNEHSSRSHSIFIIHLSGSNAKTGAHSYGTLNLVDLAGSERINVSQVVGDRLRETQNINKSLSCLGDVIHALGQPDSTKRHIPFRNSKLTYLLQYSLTGDSKTLMFVNISPSSSHINETLNSLRFASKVNSTRLVSRK
chain 2: MASQQNKHAFLSKNRIFHNPDNVSSSKSRNLMDITNTTNTMNGSRPSSMKSSLALPPVKDSFPSVSRSASLNINMSKIKDLKDRQDKIRFQRHTLRTQLIECEREIKTIKFRDLNKSRFELYKKKSKQAKYLKQVRDLTQNLNSKDGERADLIKKNKSALATLQAELDQNLILKRQESQELYNNKLIFWENELQIMENVEPDHEITEEISQLKKTLQELNINWANLQKQNLERQVNHESQLRKDFIAFKEAKLKSMENLTNKHRELLDQIATLQSESEKLHKEIMDIDRQAEYSEQNISEINENIKQLELANNPLISKSLQNSQDLEHLQNQMENLKEMASKQEKFYNDTYNTVEKELLRSRRLENSIIEQKGTMRCYAYVMEQNLPENLLFDYENGVITQGLSEHVYKFNRVIPHLKVSEDKFFTQEYSVYHDMCLNQKKNFNLISLSTTPHGSLRESLIKFLAEKDTIYQKQYVITLQFVFLSDDEFSQDMLLDYSHNDKDSIKLKFEKHSISLDSKLVIIENGLEDLPLNFSCDEHPNLPHSGMGIIKVQFFPRDSKSDGNNDPVPVDFYFIELNNLKSIEQFDKSIFKKESCETPIALVLKKLISDTKSFFLLNLNDSKNVNKLLTISEEVQTQLCKRKKKLT
modifications: HaloTag TMR ligand covalently bound to the HaloTag (imaging experiments)
- binding [3]: no binding (tested: binding partner 0.5–1 μM; bait 0.1–1 μM)
